According to PubChem BioAssay AID1347076 (National Center for Advancing Translational Sciences (NCATS), 2019):
“And” between values parts separate entries of the source, which are not always exact repeats. Equal entries are not always repeated. The whole screen tested about 400,000 compounds, of which about 13,000 (3.2%) were called active. The shares of active, inactive and inconclusive entries below differ from those in the screen. Calls follow the shape of the dose curve; as a rule, active = well fitted cell-killing curve with a large enough effect; inconclusive = small, poorly fitted or top-dose-only effect, or effect the other way; inactive = flat fitted curve, though single readings scatter. A potency beside an inconclusive call is a rough fit, not a confirmed value.

test: qHTS assay for MDR1-selective chemotherapeutics: Primary screen using the drug-selected MDR subline cells KB-V1; details: KB-V1 MDR cells viability, CellTiter-Glo, 72 h; series mostly up to 46.1 µM; also: nearly all actives have a fitted effect of over 60% in size
Procedure, shortened: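 Compound-treated KB-V1 multidrug-resistant cells, 72 h, 37 degrees C; viability by CellTiter-Glo. Fitted qHTS curves give the values.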
Potency is read from the fitted curve at half-maximal effect.

Q: Which Potency does the source give for `CCc1c(C(=O)N/N=C/c2ccc(OCc3ccc(F)cc3)c(OC)c2)nnn1-c1nonc1N` here?
A: inconclusive: 6.51 µM [cytotoxic, partial curve]

Q: For `Cc1cc2n(n1)CCC(=O)N2Cc1ccc(C(=O)Nc2ccc(Br)c(C)c2)cc1`, which Potency is on record?
A: inactive

Q: With `CCn1c(C)nc2cc(NC(=O)Nc3cccc(C(C)=O)c3)ccc21` as the compound, how does the Potency read?
A: inactive

Q: With `COC(=O)c1ccccc1S(=O)(=O)N1CCC(C(=O)NCCC2=CCCCC2)CC1` as the compound, how does the Potency read?
A: inconclusive: 0.0092 µM [rising, full curve]

Q: With `Cc1ccc(-c2c[n+](CC(=O)OCc3ccccc3)c3n2CCC3)cc1` as the compound, how does the Potency read?
A: inactive

Q: With `Cc1ccc(CN2CC(=O)N3[C@H]4c5ccccc5OC[C@@H]4[C@H](c4ccccc4)[C@]3(C)C2=O)cc1` as the compound, how does the Potency read?
A: inconclusive: 23.1 µM [cytotoxic, partial curve, poor fit]

Q: For `CC1=C(C(=O)Nc2cccnc2)C(c2ccc(Cl)cc2)n2nc(SCc3ccccc3)nc2N1` (configuration not stated), which Potency is on record?
A: inconclusive: 18.4 µM [rising, single point]

Q: With `COc1ccc(Br)c(C(=O)Nc2cccc(S(=O)(=O)N3CCOCC3)c2)c1` as the compound, how does the Potency read?
A: inactive

Q: Which Potency does the source give for `CC(C)NS(=O)(=O)c1ccc(OCC(=O)Nc2ccc(F)cc2F)cc1` here?
A: active: 16.4 µM

Q: With `COc1cc(OC)c(NS(=O)(=O)c2cn(C)cn2)cc1Cl` as the compound, how does the Potency read?
A: inconclusive: 29.1 µM [rising, single point]

Q: For `CC1CCCC(NC(=O)COC(=O)COc2ccc(C#N)cc2)C1C` (configuration not stated), which Potency is on record?
A: inactive

Q: With `O=C1CCc2ccccc2N1Cc1ccccc1` as the compound, how does the Potency read?
A: inconclusive: 1.84 µM [rising, full curve]

Q: With `O=C(NCC(c1ccco1)N1CCc2ccccc21)c1ccccc1F` (configuration not stated) as the compound, how does the Potency read?
A: inconclusive: 10.3 µM [cytotoxic, partial curve, poor fit]

Q: Which Potency does the source give for `O=C(Cn1ncc2ccsc2c1=O)N1CCN(c2ccccc2)CC1` here?
A: inactive

Q: With `COCCNC(=O)c1ccccc1NC(=O)CSc1ccc(C)cc1` as the compound, how does the Potency read?
A: inactive

Q: For `CCOC(=O)Cc1c(C)nc2c(-c3ccc(Cl)cc3)c(C)nn2c1C`, which Potency is on record?
A: inconclusive: 4.61 µM [cytotoxic, full curve]

Q: With `CCC(C)(C)NC(=O)C(c1cccc(OC)c1)N(C(=O)c1ccn[nH]1)c1cccc(OC)c1` (configuration not stated) as the compound, how does the Potency read?
A: inconclusive: 20.6 µM [cytotoxic, single point]

Q: With `COc1ccc2nc(SCC(=O)N3CC(=O)Nc4ccccc43)c(C#N)cc2c1` as the compound, how does the Potency read?
A: inconclusive: 5.17 µM [cytotoxic, full curve]

Q: For `COc1ccc(-n2c(-c3ccccc3)cc3c2CCCC3=O)cc1`, which Potency is on record?
A: active: 11.6 µM

Q: For `O=C(NCc1ccncc1)c1ccc(Oc2ccccc2)cc1`, which Potency is on record?
A: inconclusive: 14.6 µM [cytotoxic, partial curve]

Q: Which Potency does the source give for `CC(C)NC(=O)NC(=O)COC(=O)c1c2c(nc3ccccc13)CCC2` here?
A: active: 20.6 µM

Q: With `CCCCNc1c(-c2ccc(SC(C)CC)cc2)nc2ccccn12` (configuration not stated) as the compound, how does the Potency read?
A: active: 13 µM and inconclusive: 29.1 µM [cytotoxic, single point]

Q: Which Potency does the source give for `COc1cccc(NC(=O)c2ccc(OC(F)(F)F)cc2)c1` here?
A: inconclusive: 4.11 µM [cytotoxic, partial curve]

Q: With `NC(Cc1ccc(Cl)cc1)c1csc(NC(=O)Nc2ccccc2-c2ccccc2)n1` (configuration not stated) as the compound, how does the Potency read?
A: inconclusive: 20.6 µM [cytotoxic, single point]

Q: Which Potency does the source give for `Cc1ccc(S(=O)(=O)N2CCCCC2)cc1NC(=O)C1CCC1` here?
A: active: 23.1 µM

Q: For `O=C(c1nc(-c2ccccc2)n(-c2ccccc2)n1)N1CCN(S(=O)(=O)c2ccccc2)CC1`, which Potency is on record?
A: inconclusive: 29.1 µM [cytotoxic, single point]

Q: For `COc1ccccc1-c1c(C(F)(F)F)oc2cc(OC(=O)c3ccccc3[N+](=O)[O-])ccc2c1=O`, which Potency is on record?
A: inactive

Q: With `O=C(CC1N=C2c3ccccc3N=C(SCc3ccccc3Cl)N2C1=O)NCc1cccs1` (configuration not stated) as the compound, how does the Potency read?
A: inactive

Q: With `Cc1cc(OCCN2CC(C)OC(C)C2)ccc1[N+](=O)[O-]` (configuration not stated) as the compound, how does the Potency read?
A: inconclusive: 18.4 µM [cytotoxic, single point]

Q: With `COc1ccc(N2CSC(=S)N(c3ccc(OC)cc3)C2)cc1` as the compound, how does the Potency read?
A: inactive

Q: With `O=C(Nc1ccn(Cc2ccccc2F)n1)c1ccc(COc2ccc(Br)cc2)cc1` as the compound, how does the Potency read?
A: inconclusive: 29.1 µM [cytotoxic, single point]

Q: For `CS(=O)(=O)N(CC(=O)N/N=C/c1cc2c(cc1Br)OCO2)c1ccccc1Br`, which Potency is on record?
A: active: 18.4 µM

Q: Which Potency does the source give for `Cc1ccc(/C=N/NC(=O)c2ccc(C(=O)N/N=C/c3ccc(C)s3)o2)s1` here?
A: inactive

Q: For `O=C(O)CCSc1ncnc2sc(-c3ccccc3)cc12`, which Potency is on record?
A: inactive

Q: For `O=C(c1ccco1)N1CCC(c2ccccc2)C1` (configuration not stated), which Potency is on record?
A: inconclusive: 29.1 µM [cytotoxic, single point]

Q: For `Cn1cc(C(=O)c2cccc(Cl)c2)cc1C#N`, which Potency is on record?
A: inactive

Q: For `CC(C)NC(=O)C1(C)CCCCN1Cc1ccc(OCc2ccccc2)cc1` (configuration not stated), which Potency is on record?
A: inconclusive: 16.4 µM [cytotoxic, partial curve]

Q: Which Potency does the source give for `CC(=O)N1CCC(N(Cc2ccco2)C(=O)Nc2ccc(Br)cc2F)CC1` here?
A: inactive

Q: With `CCc1nc(Nc2ccc(N3CCN(C(C)=O)CC3)cc2)c2oc3ccccc3c2n1` as the compound, how does the Potency read?
A: inconclusive: 29.1 µM [cytotoxic, single point]

Q: With `CCN1C(=O)N(CC)C2C1N(C(C)=O)C(=O)N2C(C)=O` (configuration not stated) as the compound, how does the Potency read?
A: inconclusive: 29.1 µM [rising, single point]

Q: With `CC(C)c1ccc(N(CC(=O)NC2CCCCC2)C(=O)CCC(=O)Nc2ccccn2)cc1` as the compound, how does the Potency read?
A: inconclusive: 4.11 µM [cytotoxic, full curve]

Q: With `O=[N+]([O-])c1cccc(/C=N/n2c(COc3ccccc3)n[nH]c2=S)c1` as the compound, how does the Potency read?
A: inconclusive: 29.1 µM [cytotoxic, single point]

Q: For `CC1=CC(=O)C(C(C)C)=CC1=NC(=O)c1ccc(C)cc1`, which Potency is on record?
A: inactive

Q: With `CCN(CC)CCNC(=O)c1[nH]c2ccccc2c1Sc1ccc(Cl)cc1` as the compound, how does the Potency read?
A: inactive

Q: Which Potency does the source give for `COc1ccc(NC(=O)N(C)C[C@@H]2OCc3cnnn3CCCC(=O)N([C@@H](C)CO)C[C@H]2C)cc1` here?
A: inactive

Q: For `CCCc1n(CC(O)COC2CCCCC2)c2ccccc2[n+]1C` (configuration not stated), which Potency is on record?
A: inactive

Q: With `O=C(COC(=O)c1cc([N+](=O)[O-])ccc1NCCO)NCc1cccs1` as the compound, how does the Potency read?
A: inactive
